Reference: patent EP2467164A2 (dated 2012)
Results are given in words; binding and its absence hold for the method and conditions named. Some binding calls cover weakened binding; strength is not graded here.

By UniProt entry, the sequences of proteins in these tests, tags left out. Where a name states a change or a piece, a line headed by the entry shows the natural chain unless it says otherwise.
UniProt P21860: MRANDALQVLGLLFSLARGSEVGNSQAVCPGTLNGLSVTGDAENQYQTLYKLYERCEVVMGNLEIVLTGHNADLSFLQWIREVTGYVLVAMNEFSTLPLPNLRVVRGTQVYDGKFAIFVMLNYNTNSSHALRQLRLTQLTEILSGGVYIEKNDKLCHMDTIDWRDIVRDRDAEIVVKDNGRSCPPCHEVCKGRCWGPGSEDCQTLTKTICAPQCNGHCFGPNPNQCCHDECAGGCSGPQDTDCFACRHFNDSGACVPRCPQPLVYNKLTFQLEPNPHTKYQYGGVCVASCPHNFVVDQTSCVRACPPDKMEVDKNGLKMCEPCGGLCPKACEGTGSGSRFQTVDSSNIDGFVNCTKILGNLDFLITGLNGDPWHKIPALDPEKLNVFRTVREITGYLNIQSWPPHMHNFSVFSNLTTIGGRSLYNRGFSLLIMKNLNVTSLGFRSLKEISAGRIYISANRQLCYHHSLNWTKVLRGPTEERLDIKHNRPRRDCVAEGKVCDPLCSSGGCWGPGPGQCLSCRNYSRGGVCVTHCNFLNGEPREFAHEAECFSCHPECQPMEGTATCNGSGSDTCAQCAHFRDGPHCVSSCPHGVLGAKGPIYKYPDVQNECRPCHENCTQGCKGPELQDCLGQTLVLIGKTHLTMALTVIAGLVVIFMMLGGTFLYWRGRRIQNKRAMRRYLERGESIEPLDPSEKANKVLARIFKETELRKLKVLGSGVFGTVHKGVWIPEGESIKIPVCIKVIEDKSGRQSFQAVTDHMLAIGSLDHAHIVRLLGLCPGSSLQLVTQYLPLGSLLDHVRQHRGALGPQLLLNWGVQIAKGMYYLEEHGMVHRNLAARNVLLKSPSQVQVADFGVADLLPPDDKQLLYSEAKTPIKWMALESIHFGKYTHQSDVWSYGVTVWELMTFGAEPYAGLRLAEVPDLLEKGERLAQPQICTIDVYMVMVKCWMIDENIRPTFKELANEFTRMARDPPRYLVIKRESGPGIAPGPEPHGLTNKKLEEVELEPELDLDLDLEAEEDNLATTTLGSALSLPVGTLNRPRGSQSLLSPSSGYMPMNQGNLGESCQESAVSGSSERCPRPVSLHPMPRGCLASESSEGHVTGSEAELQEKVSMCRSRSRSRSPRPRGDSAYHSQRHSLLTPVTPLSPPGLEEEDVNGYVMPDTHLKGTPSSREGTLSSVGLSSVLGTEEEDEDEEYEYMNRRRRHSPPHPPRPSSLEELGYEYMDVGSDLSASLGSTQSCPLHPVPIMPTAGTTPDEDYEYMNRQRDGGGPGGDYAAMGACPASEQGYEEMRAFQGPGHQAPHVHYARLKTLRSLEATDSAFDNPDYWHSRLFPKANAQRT

Columns and labels:
Protein A = Protein A (UniProt P38507); assay: paratope mapping screen (Figure 36)
[1] = target: ErbB3 ectodomain Domain I expressed on the surface of yeast cells (human) (UniProt P21860); assay: FACS on yeast displaying ErbB3 Domain I

binding (Protein A)	binding [1]	Binder
binds	–	single chain (scFv) version of Ab #6 (scFv) scFv: EVQLLESGGGLVQPGGSLRLSCAASGFTFSHYVMAWVRQAPGKGLEWVSSISSSGGWTLYADSVKGRFTISRDNSKNTLYLQMNSLRAEDTAVYYCTRGLKMATIFDYWGQGTLVTVSSASTGGGGSGGGGSGGGGSQSALTQPASVSGSPGQSITISCTGTSSDVGSYNVVSWYQQHPGKAPKLIIYEVSQRPSGVSNRFSGSKSGNTASLTISGLQTEDEADYYCCSYAGSSIFVIFGGGTKVTVL
–	binds	Ab #6 (antibody, V domains shown, also called MM-121; anti-ErbB3 antibody Ab #6) VH: EVQLLESGGGLVQPGGSLRLSCAASGFTFSHYVMAWVRQAPGKGLEWVSSISSSGGWTLYADSVKGRFTISRDNSKNTLYLQMNSLRAEDTAVYYCTRGLKMATIFDYWGQGTLVTVSS VL: QSALTQPASVSGSPGQSITISCTGTSSDVGSYNVVSWYQQHPGKAPKLIIYEVSQRPSGVSNRFSGSKSGNTASLTISGLQTEDEADYYCCSYAGSSIFVIFGGGTKVTVL
